At least one peptide structure holds a part that was inferred or is arguable (an end, a ring closure or a residue). Peptide text beside a SMILES is read from it.
Molecular target: epidermal growth factor (EGF) (Homo sapiens, UniProt P01133)
Test: Surface plasmon resonance (Biacore) binding to growth factor
Conditions: plasmon surface resonance (Biacore T200)
Description: To study the binding activities of these peptides, real time interactions of P12, P46, and cNP8 with growth factors were determined by plasmon surface resonance (Biacore T200).

Amino acid sequences for entries named in this document (tags omitted). Residues count along the entry.
UniProt P01133, 971-1023 limits assumed, species assumed: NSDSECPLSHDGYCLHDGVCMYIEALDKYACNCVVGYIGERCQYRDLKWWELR

CC[C@H](C)[C@H](NC(=O)[C@H](Cc1ccc(O)cc1)NC(=O)[C@H](CCCCN)NC(=O)[C@H](CO)NC(=O)[C@@H](NC(=O)[C@H](Cc1c[nH]cn1)NC(=O)[C@H](CO)NC(=O)[C@@H]1CCCN1)[C@@H](C)CC)C(=O)N[C@@H](CC(C)C)C(=O)N[C@@H](CCCNC(=N)N)C(=O)N[C@@H](Cc1c[nH]c2ccccc12)C(=O)N[C@@H](CCCNC(=N)N)C(=O)N1CCC[C@H]1C(=O)N[C@@H](CCCCN)C(=O)O [P12, PSHISKYILRWRPK] (H-PSHISKYILRWRPK-OH; N-terminus and C-terminus assumed)
binding to EGF: did not bind
